Results deposited as PubChem BioAssay AID504804 (Drosophila RNAi Screening Center, 2011)

Assay: 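Knock-downs shielding fly cells from apoptosis caused by DNA damage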 (primary screen)
System: Drosophila Kc cells
Reagents: long dsRNA against Drosophila genes, 0.5 µg dsRNA per well
Timing: 96 h (48 h knock-down, then 48 h drug)
Conditions: doxorubicin 5 µg/ml for 48 h, added 48 h after dsRNA
Read-out: 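Viability measured as cellular ATP by luminescence after 48 h knock-down then 48 h doxorubicin at 5 µg/ml; unnormalised plate counts for each replicate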
Scale: raw ATP luminescence: higher = more viable cells, protection from doxorubicin
Rule for the call: 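z-score of 2 or more over plate mean in both duplicates, retained only when retests and separate dsRNAs confirm the protection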
The screen tested about 19,000 reagents; this is an unselected part of those that have a named target and a result. In the full data, 47 (0.25%) are marked active. 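Signals are raw, not normalised; exact z-scores behind calls not deposited; actives needed confirmation, so some wells reaching 2 SD are inactive.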 A number with no mark means an inactive call. The numbers tell different reagents against one gene apart. Names joined by + are all predicted targets of the reagent. No sequences are given here.

The first 6 records as a preview:
| gene | reagent no. | raw ATP luminescence, replicate 1 | raw ATP luminescence, replicate 2 |
| --- | --- | --- | --- |
| CG9782 (GeneID 32632) | 1 | 1.69e5 | 1.79e5 |
| CG9782 (GeneID 32632) | 2 | 2.91e5 | 2.62e5 |
| Cerk (GeneID 40640) | 1 | 47257 | 19217 |
| mei-S332 (GeneID 37523) | 1 | 75007 | 61660 |
| CG13138 (GeneID 34381) | 1 | 43337 | 82533 |
| Tap42 (GeneID 326166) | 1 | 79723 | 80840 |

Main list, repeating the preview:
| gene | reagent no. | raw ATP luminescence, replicate 1 | raw ATP luminescence, replicate 2 |
| --- | --- | --- | --- |
| CG9782 (GeneID 32632) | 1 | 1.69e5 | 1.79e5 |
| CG9782 (GeneID 32632) | 2 | 2.91e5 | 2.62e5 |
| Cerk (GeneID 40640) | 1 | 47257 | 19217 |
| mei-S332 (GeneID 37523) | 1 | 75007 | 61660 |
| CG13138 (GeneID 34381) | 1 | 43337 | 82533 |
| Tap42 (GeneID 326166) | 1 | 79723 | 80840 |
| wgn (GeneID 32849) | 1 | 1.46e5 | 1.60e5 |
| MRG15 (GeneID 41850) | 1 | 54430 | 18520 |
| rnh1 (GeneID 35746) | 1 | 39000 | 74447 |
| Acbp3 (GeneID 38783) | 1 | 65190 | 78223 |
| CG4953 (GeneID 34373) | 1 | 92347 | 57517 |
| CG11396 (GeneID 40296) | 1 | 80947 | 60263 |
| CG10353 (GeneID 32148) | 1 | 3.01e5 | 3.17e5 |
| sdt (GeneID 44861) | 1 | 1.40e5 | 1.53e5 |
| sdt (GeneID 44861) | 2 | 1.71e5 | 1.90e5 |
| sdt (GeneID 44861) | 3 | 40960 | 43170 |
| sdt (GeneID 44861) | 4 | 44380 | 40070 |
| sdt (GeneID 44861) | 5 | 24500 | 36150 |
| sdt (GeneID 44861) | 6 | 15070 | 14650 |
| sdt (GeneID 44861) | 7 | 10670 | 13160 |
| sdt (GeneID 44861) | 8 | 21230 | 24340 |
| sdt (GeneID 44861) | 9 | 40670 | 46930 |
| alpha-Est4 (GeneID 40906) | 1 | 58817 | 60920 |
| CG3517 (GeneID 42324) | 1 | 61960 | 73640 |
| Hsp60D (GeneID 34763) | 1 | 70897 | 82417 |
| CG5071 (GeneID 43090) | 1 | 64330 | 60240 |
| Kdsr (GeneID 43043) | 1 | 2.06e5 | 2.14e5 |
| Cad87A (GeneID 41441) | 1 | 47943 | 22053 |
| CG14424 (GeneID 31279) | 1 | 61950 | 57160 |
| AIMP1 (GeneID 35892) | 1 | 48807 | 99100 |
| wmd (GeneID 37727) | 1 | 71783 | 74067 |
| CG9254 (GeneID 34773) | 1 | 14560 | 94493 |
| CG11777 (GeneID 36108) | 1 | 42810 | 77487 |
| Mau2 (GeneID 41830) | 1 | 59153 | 23810 |
| CG14142 (GeneID 39261) | 1 | 86293 | 90170 |
| NimB4 (GeneID 34814) | 1 | 1.03e5 | 73660 |
| Gpo2 (GeneID 35689) | 1 | 60900 | 79563 |
| CG15027 (GeneID 32440) | 1 | 3.01e5 | 2.79e5 |
| gammaTub23C (GeneID 33501) | 1 | 1.19e5 | 55243 |
| phtm (GeneID 32857) | 1 | 2.15e5 | 2.53e5 |
| CG14711 + Zaf1 | 1 | 65337 | 73967 |
| Osi7 (GeneID 40761) | 1 | 44830 | 59117 |
| CG34357 (GeneID 5740349) | 1 | 63747 | 58710 |
| CG34357 (GeneID 5740349) | 2 | 45413 | 43090 |
| CG34357 (GeneID 5740349) | 3 | 72520 | 60827 |
| Mpcp2 (GeneID 39587) | 1 | 40120 | 43120 |
| CheB53b (GeneID 3346204) | 1 | 1.70e5 | 1.26e5 |
| CG8149 (GeneID 41137) | 1 | 57643 | 48407 |
| foxo (GeneID 41709) | 1 | 34633 | 38194 |
| foxo (GeneID 41709) | 2 | 57353 | 27517 |
| gce (GeneID 32457) | 1 | 2.64e5 | 2.87e5 |
| gce (GeneID 32457) | 2 | 2.73e5 | 2.82e5 |
| CG14546 (GeneID 43142) | 1 | 83660 | 74070 |
| Sfp53D (GeneID 8673983) | 1 | 1.65e5 | 1.51e5 |
| ppk5 (GeneID 2768987) | 1 | 64303 | 77780 |
| CG7484 (GeneID 39969) | 1 | 76413 | 70980 |
| CG4537 (GeneID 34306) | 1 | 22973 | 49360 |
| Ctr1C (GeneID 43668) | 1 | 59120 | 43910 |
| roh (GeneID 246602) | 1 | 81993 | 92213 |
| CG31937 (GeneID 326177) | 1 | 1.23e5 | 86443 |
| CG4073 (GeneID 41284) | 1 | 60663 | 74727 |
| CG42671 (GeneID 39268) | 1 | 86923 | 78453 |
| CG42671 (GeneID 39268) | 2 | 72317 | 71287 |
| aurA (GeneID 41446) | 1 | 56007 | 55307 |
| x16 (GeneID 33967) | 1 | 2.63e5 | 3.06e5 |
| x16 (GeneID 33967) | 2 | 99027 | 63330 |
| Rep (GeneID 37246) | 1 | 62420 | 64983 |
| barr (GeneID 35287) | 1 | 46710 | 37113 |
| CG14985 (GeneID 38470) | 1 | 1.90e5 | 1.52e5 |
| CG6592 (GeneID 38687) | 1 | 71107 | 80890 |
| Him (GeneID 32801) | 1 | 3.34e5 | 3.24e5 |
| PK1-R (GeneID 41713) | 1 | 1.02e5 | 67910 |
| CG5577 (GeneID 39985) | 1 | 23437 | 25830 |
| CG15143 (GeneID 35062) | 1 | 73960 | 77803 |
| CG3748 (GeneID 34252) | 1 | 49240 | 65017 |
| CG31174 (GeneID 318616) | 1 | 2.19e5 | 2.48e5 |
| Sbat (GeneID 319043) | 1 | 2.97e5 | 2.79e5 |
| CG9030 (GeneID 32427) | 1 | 4.20e5 | 3.45e5 |
| Vps35 (GeneID 37536) | 1 | 83253 | 61523 |
| CG5068 (GeneID 39032) | 1 | 37273 | 38030 |
| Neu2 (GeneID 40375) | 1 | 62647 | 62850 |
| CG32237 (GeneID 38584) | 1 | 92103 | 91410 |
| CG32237 (GeneID 38584) | 2 | 96167 | 91520 |
| LUBEL (GeneID 33950) | 1 | 22480 | 26437 |
